# Library screening results

Amino acid sequences for entries named in this document (tags omitted).
UniProt E9BF75, entry or part of it: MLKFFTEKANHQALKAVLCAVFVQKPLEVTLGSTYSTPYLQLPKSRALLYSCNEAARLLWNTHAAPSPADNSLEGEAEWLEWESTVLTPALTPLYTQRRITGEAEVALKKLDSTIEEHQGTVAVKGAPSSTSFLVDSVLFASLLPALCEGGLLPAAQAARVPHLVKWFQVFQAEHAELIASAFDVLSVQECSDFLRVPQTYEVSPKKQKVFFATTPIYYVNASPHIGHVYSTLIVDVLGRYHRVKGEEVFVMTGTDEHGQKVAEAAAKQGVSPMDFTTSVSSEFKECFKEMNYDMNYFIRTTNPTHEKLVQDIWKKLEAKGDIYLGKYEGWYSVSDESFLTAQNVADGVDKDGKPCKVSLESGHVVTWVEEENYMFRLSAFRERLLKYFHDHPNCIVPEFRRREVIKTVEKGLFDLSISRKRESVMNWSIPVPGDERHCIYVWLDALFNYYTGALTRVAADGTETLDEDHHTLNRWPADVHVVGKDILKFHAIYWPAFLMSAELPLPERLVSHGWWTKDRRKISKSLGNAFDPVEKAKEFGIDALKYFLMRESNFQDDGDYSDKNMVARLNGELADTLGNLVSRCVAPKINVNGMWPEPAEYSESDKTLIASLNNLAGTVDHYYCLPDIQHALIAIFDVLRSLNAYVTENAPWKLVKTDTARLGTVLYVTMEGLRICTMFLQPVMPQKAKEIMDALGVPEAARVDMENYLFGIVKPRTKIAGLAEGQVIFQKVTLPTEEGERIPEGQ

The values are deposited in ChEMBL (CHEMBL3988442, “University of Dundee, Small-Polar-MMV Screening Library” (2021)).

Results are percentages, as filed. How 0% and 100% were set is not recorded. Most values in the screen are low, and negative values occur. Compounds were drawn at random from those tested, without regard to their results.

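Primary screen of methionyl-tRNA synthetase; the read-out is not stated. Target: Methionyl-tRNA synthetase (putative), Leishmania donovani (UniProt E9BF75). The test concentration is not given. The values are filed as inhibition. About 68,000 compounds were tested under these conditions; 0.035% (about 24) showed 50% or more at least once.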

| Compound | inhibition |
|---|---|
| `Cc1cnc(CNc2c(F)cccc2-n2cccn2)o1` | 6.195 |
| `CN(C)C(=O)CO[C@H]1CO[C@@]2(CCN(Cc3ccsc3)C2)C1` | 8.403 |
| `CN(C(=O)c1ccncc1)c1ccccc1S(C)(=O)=O` | 13.77 |
| `CCc1noc(CNc2cc(F)ccc2OCC2CCCO2)n1` (centres undefined) | 11.23 |
| `Cc1nnc(SC2CCN(c3sccc3C#N)C2=O)s1` (centres undefined) | 8.411 |
| `CN(C)CC(=O)N1CCC2(CC1)CN(Cc1ccccc1)C2` | 12.32 |
| `CN(c1ccc(C(=O)NCCCN2CCOCC2)c(Cl)c1)S(C)(=O)=O` | 11.81 |
| `CCn1nc(C)c(CN2CCC(c3ccc(C(=O)O)cc3)C2)c1C` (centres undefined) | 15.28 |
| `O=C(CSc1ccccc1F)NS(=O)(=O)c1ccc2c(c1)OCCO2` | 11.48 |
| `COc1c(C)cnc(CN2CCOC(Cn3cc(C)cn3)C2)c1C` (centres undefined) | 9.859 |
| `O=C(NCc1nncn1C1CC1)C1(c2cccc(F)c2)CCOCC1` | 14.29 |
| `Cc1cnn(CC(C)NCc2ccccc2OCc2cccnc2)c1` (centres undefined) | 24.36 |
| `Fc1ccccc1CN1C[C@H](OCC2CCOCC2)[C@H]2OCCC[C@H]21` | 11.29 |
| `CN(C)C(CNC(=O)c1ccnc(-n2cncn2)c1)c1ccccc1` (centres undefined) | 18.93 |
| `Cc1ccc(S(=O)(=O)NC[C@H]2OC[C@@H](NCc3ccncc3)[C@@H]2O)cc1` | 2.373 |
| `COc1cccc(-c2cc(NCCO)nc3[nH]ccc23)n1` | 17.01 |
| `CCN(CC)Cc1ccc(C(=O)NC2CCc3cc(Br)ccc32)o1` (centres undefined) | 15.33 |
| `O=C(C1CCC1)N1CCN(C(=O)c2cnccn2)[C@H]2CS(=O)(=O)C[C@H]21` | 11.96 |
| `c1ccc(-c2nn3c(CN4CCOCC4)nnc3s2)nc1` | 18.84 |
| `Cc1ccc(NC(=O)NC(C)c2nc[nH]n2)s1` (centres undefined) | 14.5 |
| `Cc1ccc(CN2CC[C@@H]3[C@@H]2CCN3C(=O)Cc2cccs2)o1` | 11.14 |
| `c1cc(C2CCN(c3cncnc3)CC2)ccn1` | 10.94 |
| `CCc1ocnc1C(=O)N1CCCC1c1noc(C(C)C)n1` (centres undefined) | 16.84 |
| `Cc1noc(-c2ccnc(Oc3cccc(CN4CCCC4)c3F)c2)n1` | 11.76 |
| `CNC(=O)C(C)CN(C)C(=O)Nc1cc(-n2cccc2)ccc1F` (centres undefined) | 6.407 |
| `CCOC(=O)Cn1c(=O)nc(N)c2c(-c3ccc(OC)cc3)csc21` | 12.42 |
| `Cc1cnc(N2CCC3(CCN(CC4CC4)C3=O)CC2)nc1` | 9.764 |
| `CCC(=O)NC(c1cccnc1)c1cc(C)ccc1C` (centres undefined) | 12.14 |
| `CC(CNC(=O)c1nc(N2CCOCC2)ncc1Cl)c1ccccc1` (centres undefined) | 7.394 |
| `Cc1nnc(CN2CCN(C)C3(CCC(=O)N(CCO)CC3)C2)s1` (centres undefined) | 11.18 |
| `COCC(NC(=O)c1ccc(O)nc1)c1ccc(C)o1` (centres undefined) | 6.62 |
| `Cc1cccc(C2(C(=O)NCC3CCN(CC(F)(F)F)C3)CCC2)c1` (centres undefined) | 25.5 |
| `COCCC(=O)N1CCC2(CCN(Cc3cccc(F)c3)CC2)C1` | 15.38 |
| `Cc1cc(C)n(CCCNc2ncnc3c2NC(=O)CN3)n1` | 23.8 |
| `CCN1N=C(C(=O)N2CCCC(c3nc(C)cs3)C2)CCC1=O` (centres undefined) | 15.67 |
| `Nc1nc(CN2CCCCC2Cn2cncn2)nc2ccccc12` (centres undefined) | 21.27 |
| `CN(C)C(=O)c1c[nH]nc1C1CCN(S(=O)(=O)c2cccc(Cl)c2)CC1` | 12.07 |
| `COc1ccccc1CC(=O)N1CC[C@@]2(CCCO2)[C@@H](OC)C1` | 5.245 |
| `CN(Cc1nnc2n1CCC2)C(=O)c1ccc2c(c1)OCCO2` | -3.374 |
| `COc1ccccc1Nc1nc2c(s1)C(=O)CN(C(=O)CC(C)C)C2` | 11.89 |
| `Cc1nc(C2CCCCN2C(=O)c2ccccc2)ncc1C(=O)N(C)C` (centres undefined) | 6.62 |
| `CS(=O)(=O)NCC1CCCN(C(=O)COCC2CC2)C1` (centres undefined) | 11.05 |
| `O=C(CCC1CCCC1)N1CCC(c2ncc3c(n2)CCNC3)CC1` | 20.89 |
| `CCN(CC)c1ccc(CNS(=O)(=O)C2CCOCC2)cc1F` | 2.308 |
| `Cc1nc(N2CCC(C)CC2)ncc1-c1cc(O)nc(N2CCCC2)n1` | -41.96 |
| `COc1ccccc1-c1c[nH]c(C2CCCN2)n1` (centres undefined) | 1.504 |
| `O=C(Cc1ccon1)NC1CC2(CCC2)Oc2ccccc21` (centres undefined) | 11.08 |
| `Cn1cnnc1CN1CCC2(CCC(=O)N(Cc3ccccn3)C2)CC1` | 21.48 |
| `CCS(=O)(=O)N1Cc2nccn2CC(Cn2cccn2)C1` (centres undefined) | 13.66 |
| `O=C(OC1CCC1)c1ncccc1OCC(F)(F)F` | 12.32 |
| `Cc1cccc(C2(C(=O)NCC(C)CN3CCCC3=O)CC2)c1` (centres undefined) | 4.511 |
| `O=C(c1cc(Cl)c2c(c1)OCO2)N1CCCC(n2cncn2)C1` (centres undefined) | 21.49 |

Repeated from the top, 5 entries:

Compound,inhibition
Cc1cnc(CNc2c(F)cccc2-n2cccn2)o1,6.195
CN(C)C(=O)CO[C@H]1CO[C@@]2(CCN(Cc3ccsc3)C2)C1,8.403
CN(C(=O)c1ccncc1)c1ccccc1S(C)(=O)=O,13.77
CCc1noc(CNc2cc(F)ccc2OCC2CCCO2)n1 (centres undefined),11.23
Cc1nnc(SC2CCN(c3sccc3C#N)C2=O)s1 (centres undefined),8.411